Assay results from patent publication US20050215770A1.
These are yes or no findings as the source states them, for the method shown. Some entries that bind do so weakly or less than the wild type. Where a sequence is shown, tags or fusion partners need not be part of it.

Assays:
[1] = biological target: T1, Recombinant soluble human Flag-tagged NogoR (amino acids 1 to 309 of SEQ ID NO:2) (human) (UniProt Q9BZR6); test: ECL competition vs Ori-TAG Rat MAG-Fc, phage and/or soluble scFv
T1 sequence (chain, biotinylated with Sulfo-NHS-LC-Biotin): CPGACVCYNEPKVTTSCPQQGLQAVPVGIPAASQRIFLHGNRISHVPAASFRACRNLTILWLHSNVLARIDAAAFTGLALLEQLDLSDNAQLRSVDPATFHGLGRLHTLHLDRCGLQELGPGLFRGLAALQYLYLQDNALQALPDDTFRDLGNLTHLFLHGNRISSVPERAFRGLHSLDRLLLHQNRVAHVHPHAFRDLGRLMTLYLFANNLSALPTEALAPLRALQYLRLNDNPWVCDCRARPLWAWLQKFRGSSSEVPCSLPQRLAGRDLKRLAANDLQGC

[2] = biological target: T1, Recombinant soluble human Flag-tagged NogoR (amino acids 1 to 309 of SEQ ID NO:2) (human); test: ECL phage screen (Example 1)
[3] = biological target: T1, Recombinant soluble human Flag-tagged NogoR (amino acids 1 to 309 of SEQ ID NO:2) (human); test: ECL phage screen on biotin-rHuNOGOSR-Flag (positive: 5-fold above background)

B1: NGF1C04 (scFv)
scFv: QVQLQQSGPGLVRPSQTLSLACTVSGDSISSGDYYWTWIRQHPGKGLEWIGYISTRGSPYYNPSFMNRVAISIDSSKNQFSLNLSSVTAADTAVYYCTRETQHTSIFGVIHNWLDPWGQGTLVTVSSGGGGSGGGGSGGGGSAQAVLTQPSSASGTPGQRVSISCSGSSSNIGSNTVNWYQQLPGTAPKLLIYSGNQRPSGVPDRFSGSKSGTSASLAISGLQSEDEADYYCAAWDDSLNNLVFGPGTKVTVLG
B1 was tested, and the binding [1] was “binds” and the binding [2] was “binds”.

B2: NGE2938 (scFv)
scFv: QVQLQQWGPGLVKPSQTLSLTCTVSGGSISSRDHFWSWVRQTPGKGLEWIGYMYYNGITNYNPSLKSRVTISVDTSKNQVSLQLNSVTAADTAVYYCARAPAISSSSWPDPASIDYWGQGTLVTVSSGGGGSGGGGSGGGGSQTVLTQPASVSGSPGQSITISCTGTSSDVGGYNYVSWYQQHPGKAPKLMIYEGSKRPSGVSNRFSGSKSGNTASLTISGLQAEDEADYYCSSYTTRSTRVFGGGTKLTVLG
With B2 the binding [3] was “binds” and the binding [2] was “binds”.

B3: NGE2967 (scFv)
scFv: QVQLQQWGAGLLKPSETLSLTCAVYGGSFSGYYWSWIRQPPGKGLEWIGEVDHSGDTTYRPSLRSRVTISVDTSKNQFSLKLSSVTAADTAVYYCARGGSYQDYWGQGTVVTVSSGGGGSGGGGSGGGGSSELTQDPAVSVASGQTVRITCQGDSLRSYYASWYQQKPGQAPVLVIYGKNNRPSGIPDRFSGSSSGNTASLTITGAQAEDEADYYCNSRDSSGNHVVFGGGTKLTVLG
For B3, the binding [3] was “binds” and the binding [2] was “binds”.

B4: NGE2968 (scFv)
scFv: QVQLVQSGGGVVQPGRSLRLSCAASGFTFSSYGMHWVRQAPGKGLEWVAVISYDGSIKYYADSVKGRFTISRDNSKNTLYLQMNSLRAEDTAVYYCARTGEYSGYDTSGFQHWGRGTLVTVSSGGGGSGGGGSGGGGSQSVLTQPPSASGTPGQRVTISCSGSSSNIGSNTVNWYQRLPGAAPQLLIYNNDQRPSGIPDRFSGSKSGTSGSLVISGLQSEDEADYYCASWDDSLNGRVFGGGTKLTVLG
With B4 the binding [3] was “binds” and the binding [2] was “binds”.

B5: NGE2988 (scFv)
scFv: QVQLQQSGPGLVKPSETLSLTCTVSGGSVSSGSYFWSWIRQPPGKGLEWIGNIYYSGSTNYNPSLKSRVTISVDTSRNQFSLKLSSVTAADTAVYYCARGVYYDFWGNHGMDVWGKGSMVTVSSGGGGSGGGGSGGGGSQSVLTQPASVSGSPGQSITISCTGTSSDVGGYNYVSWYQQHPGKAPKLMIYEGSKRPSGVSNRFSGSKSGNTASLTISGLQAEDEADYYCSSYTTRSTRVFGGGTKLTVLG
B5 was tested, and the binding [3] was “binds” and the binding [2] was “binds”.

B6: NGE3006 (scFv)
scFv: EVQLVQSGGEVKRPGASVKVSCKASGSTFASYGISWVRQAPGQGLEWMGWISDSNTNTKYAQRFHGRVSLTTDTSTNTAFMELRSLTSDDTAIYYCAVMSEYDYYHYYMDVWGRGTTVTVPSGGGGSGGGGSGGGGSSELTQDPAVSVALGQTVRITCQGDSLRSYYASWYQQKPGQAPVLVIYGKNNRPSGIPDRFSGSSSGNTASLTITGAQAEDEADYYCNSRDSSGNRVFGGGTKLTVLG
With B6 the binding [3] was “binds” and the binding [2] was “binds”.

B7: NGE3040 (scFv)
scFv: EVQLVQSGAEVKKTGSSVKVFCKASGYTFTYRYLHWVRQAPGQALEWMGWITPFNGNTNYAQKFQDRVTITRDRSMTTASMELSSLRSEDTAMYYCVTGSDEYAFEMWGQGTLVTVSSGGGGSGGGGSGGGGSDIVMTQSPSTLSASVGDRVTITCRASQGISSWLAWYQQKPGRAPKVLIYKASTLESGVPSRFSGSGSGTDFTLTISSLQPEDFATYYCQQSYSTPWTFGQGTKLEIKR
In the case of B7, the binding [3] is reported as “binds” and the binding [2] is reported as “binds”.

B8: NGE3102 (scFv)
scFv: QVQLVESGGGLVQPGGSLRLSCATSGFTFDDYAMHWVRQAPGKGLEWVSLISWDGGSTYYADSVKSRFTISRDSSNNFLYLQMNSLRAEDTALYCCAKDLNYDFWSGTGMVVWGKGTLVTVSSGGGGSGGGGSGGGGSQSVLTQPASVSGSPGQSITISCTGTSSDVGGYNYVSWYQQHPGKAPKLMIYEGSKRPSGVSNRFSGSKSGNTASLTISGLQAEDEADYYCSSYTTRSTRVFGGGTKLTVLG
In the case of B8, the binding [3] is reported as “binds” and the binding [2] is reported as “binds”.

B9: NGE3181 (scFv)
scFv: QVQLQQWGAGLLKPSETLSLTCAVYGGSFSGYYWSWIRQPPGKGLEWIGEINHSGSTNYNPSLKSRVTISADTSKNQFSLKLSSVTAADTAVYYCARGSLLLDYWGRGTLVTVSSGGGGSGGGGSGGGGSSELTQDPAVSVALGQTVRITCQGDSLRSYYASWYQQKPGQAPVLVIYGKNNRPSGIPDRFSGSSSGNTASLTITGAQAEDEADYYCNSRDSSGNHVVFGGGTKLTVLG
B9 was tested, and the binding [3] was “binds” and the binding [2] was “binds”.

B10: NGF0502 (scFv)
scFv: QLQLQESGPGLVKPSQTLSLTCTVSGGSISSGDYYWSWIRQPPGKGLEWIGYIYYSGSTYYNPSLRSRLTISVDTSKNQFSLNLNSVTAADTAVYYCARDPPPNIAALSSGYYYMDVWGRGTLVTVSSGGGGSGGGGSGGGGSALDIQLTQSPDFLAVSLGERATLKCKASQTVLSSSNKKNFLAWYQQKPGQAPRLLFFWASMREFGVPDRFAGSGSGTDFTLTISSLQTEDVGIYFCQQYYSTPTFGGGTRLEIKR
For B10, the binding [3] was “binds” and the binding [2] was “binds”.

B11: NGF0503 (scFv)
scFv: QVQLVQSGAEVKKPGSSVKVSCKGSGDTFSISGFSWVRQAPGQGLEWMGGISPLLGTPKYAQKFQGRVTITADESTSAVYMEMSSLRSEDTAVYFCAKTSFVVAPDGTGYLDYWGRGTLVTVSSGGGGSGGGGSGGGGSALDIQLTQSPSTLSASVGDRVTIACRASQSVSRSLAWYQQKPGKAPKLLIYDASRLESGVPSRFSGSGFGTEFTLTITSLQPDDFATYYCQQYKGYSGTFGQGTRLEIKR
In the case of B11, the binding [3] is reported as “binds” and the binding [2] is reported as “binds”.

B12: NGF0532 (scFv)
scFv: EVQLVQSGAEVKRPGASVKVSCKTSGYTFTNFGLSWVRQAPGQGLEWLGWISGSNTDTKYAQRVQGRLTMTTDTSTSTAYMELRSLTSDDTAVYYCARDHSQPMLYSPDYWGRGTLVTVSSGGGGSGGGGSGGGGSAQTVVIQEPSFSVSPGGTVTLTCGLSSGAVSSTHHPSWYQHTPGQPPRTLIYSTHIRSSGVPDRFSASILGNKAALTITGAQADDESNYFCVLYMGFGTWVFGGGTKVTVLG
With B12 the binding [3] was “binds” and the binding [2] was “binds”.

B13: NGF0577 (scFv)
scFv: QVQLQQSGAEVKKPGASVKVSCKASGYTFSAYAIHWVRQAPGQRLEWVGRASGGNYNRKYSQKLQDRVTFTSDTSATTAYMELSSLTSEDTAVYYCVREDHDYDLWSDYKGLDVWGRGTLVTVSSGGGGSGGGGSGGGGSAQSALTQPASVSGSPGQSITISCTGISGGIGAHNLVSWYQQHPGEAPTLMIFEDTKRPSGVSNRFSGSKSGNTASLTISALQTEDEADYYCFSYPRSGGGMLGFGGGTKVTVLG
For B13, the binding [3] was “binds” and the binding [2] was “binds”.

B14: NGF0770 (scFv)
scFv: QVQLQESGGGLVQPGGSLRLSCGASGFTFRSYWMHWVRQVPGKGLAWVSRINSDGSSTWYADSVKGRLTTSRDNAKNTLYLQMNSLRIEDTAVYYCARGDPEELRSDSYFYYGMDVWGRGTLVTVSSGGGGSGGGGSGGGGSAQAVVIQEPSLTVSPGGTVTLTCSSSTGAVASGHSPTWFQQKYGQEPRTLIYSSIIKHSWTPARFSGSLLGGKAALTLSGVQPEDEADYYCLLYFGDGWVCGGGTQLTVLS
With B14 the binding [3] was “binds” and the binding [2] was “binds”.

B15: NGF0788 (scFv)
scFv: QVQLVQSGGGLVKPGGSLRLSCAASGFTFSRYSMNWVRQAPGKGLEHVSAIIANGDSTYYTNSVKGRFTISRDNSKNRLYLQMGSLRPEDTAVYYCVRDGPGGQWGAFDIWGKGTLVTVSSGGGGSGGGGSGGGGSAQAVVIQEPSLSVSPGGTISLTCGLASGSVSSNHHPSWYQQTPGHTPRTLIYSATTRSTGVPDRFSGSILGNKAALTITGAQTEDESDYYCMLYLGPGIWVFGGGTKVTVLG
B15 was tested, and the binding [3] was “binds” and the binding [2] was “binds”.

B16: NGF0808 (scFv)
scFv: QVQLQESGGGVVQPGKSLRLSCAASGFAFSRSSMHWVRQAPGKGLEWVSVISYDGSIKYYADSVKGRFTISRDNSKNTMYLQMNSLRPEDTAVFYCARPLQGIPAAGLDYWGRGTMVTVSSGGGGSGGGGSGGGGSAQSVLTQPPSVSAAPGQKVTISCSGISSNIGNNHVSWYQQFPGTAPKLLIYDSNKRPSGIPDRFSGSKSGTSATLDITGLQTGDEADYYCGTWDNSLSAGVFGGGTKLTVLG
For B16, the binding [3] was “binds” and the binding [2] was “binds”.

B17: NGF0954 (scFv)
scFv: EVQLVETGGGLVQPGGSLRLSCAASGFTVSTDYMSWVRQAPGKGLEWVSVIYPGGITCYADSVKGRFSISRESSKNTVYLQMNSLRAEDTAIYYCAREVADYYGMDVWGQGTLVTVSSGGGGSGGGGSGGGGSALEIVLTQSPATLSLSPGERATLSCRASQNVNIYLAWYQQKPGQPPRVLIYDASKRATGIPARFSGSGSGTDFTLTISSLEPEDFAVYYCQQRFDWPPITLGQGTRLEIKR
B17 was tested, and the binding [3] was “binds” and the binding [2] was “binds”.

B18: NGG2105 (scFv)
scFv: EVQLLESGGGLVQPGGTLRLSCATSGFTFSSYAMSWVRQAPGKGLDWVSAISGSGGSTYYSHSVKGRFTISRDNSKNTLYLQMNSLRAEDTAVYYCAREGHFDYVSGSFSLWGQGTTVTVSSGGGGSGGGGSGGGGSALSYVLTQPPSVSVSPGQTTSVICSGNKLEDKYVSWYQQKPGQSPVLVIYQDATRPSGIPERFSASNSGNTATLTISGTQAIDEADYYCQVWDSSTGVVFGGGTKLTVLG
For B18, the binding [3] was “binds” and the binding [2] was “binds”.
